Inconclusive results, whose numbers are uncertain, are shown with a selection of clear calls. Potencies beside an inconclusive call are fits to weak or partial responses and may not hold up. Active and inactive are the calls of the source. Calls come from the whole dose curve; as a rule, active = well fitted cell-killing curve with a large enough effect; inconclusive = small, poorly fitted or top-dose-only effect, or effect the other way; inactive = no such curve, though single readings can be large or run the other way.
What follows are compounds tested on CAOV3 (assay: Confirmatory qHTS for gynecologic anti-cancer compounds from libraries of approved drugs and bioactive compounds). Details: gynecologic cancer cell panel viability, ATPlite luminescence, 48 h; series mostly up to 57.6 µM; activity change, negative = viability loss: at the top concentration.
In short: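 Cells (1,000/well) were plated, left 16 h at 37 C/5% CO2, then given compound at 11 concentrations (1:3) from 57.5 uM to 0.977 nM for 48 h. ATPlite luminescence after 15 min at room temperature gave IC50 values.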
% is set by controls: 0 for no effect and ±100 for the full control effect; potency is the fitted concentration of half-maximal effect.
Note: nearly all actives have a fitted effect of over 55% in size.

| SMILES | Potency | activity change, negative = viability loss |
| --- | --- | --- |
| Cc1nc(N)ncc1-c1nc(N2CCOCC2)c2sc(C(C)(C)O)cc2n1 | inconclusive: 1.37 µM [cytotoxic, full curve] | – |
| Nc1ccccc1NC(=O)c1ccc(CNC(=O)OCc2cccnc2)cc1 | inconclusive: 21.7 µM [cytotoxic, partial curve] | – |
| Cc1cnc(CNC(=O)c2c(=O)c3ccc(N4CCCN(C)CC4)nc3n3c2sc2ccccc23)cn1 | – | inactive: 22.5% [at 10.7 µM] |
| Cc1cc(Nc2cc(N3CCN(C)CC3)nc(Sc3ccc(NC(=O)C4CC4)cc3)n2)n[nH]1 | – | inactive: 5.82% |
| Cc1nc(NC(=O)N2CCCC2C(N)=O)sc1-c1csc(C(C)(C)C)n1 (stereo not given) | inconclusive: 12.2 µM [cytotoxic, full curve, poor fit] | – |
| CC(C)(C)C(=O)OCOP(=O)(COCCn1cnc2c(N)ncnc21)OCOC(=O)C(C)(C)C | inconclusive: 21.7 µM [cytotoxic, partial curve] | – |
| COc1cc2nccc(Oc3ccc(NC(=O)Nc4cc(C)on4)c(Cl)c3)c2cc1OC | inconclusive: 13.7 µM [cytotoxic, partial curve] | – |
| Nc1ccc(C(=O)Nc2cccc(-c3nc(N4CCOCC4)c4oc5ncccc5c4n3)c2)cn1 | inconclusive: 6.11 µM [cytotoxic, full curve] | – |
| CC1(C)[C@@H](O)CC[C@]2(C)[C@H]3C(=O)C=C4[C@@H]5C[C@@](C)(C(=O)O)CC[C@]5(C)CC[C@@]4(C)[C@]3(C)CC[C@@H]12 | inconclusive: 27.3 µM [rising, partial curve] | – |
| CN1CCCC(n2nc(Cc3ccc(Cl)cc3)c3ccccc3c2=O)CC1 (stereo not given) | inconclusive: 38.5 µM [cytotoxic, partial curve, poor fit] | – |
| O=c1cc(CN2CCOCC2)occ1OCCCCCSc1ccnc2cc(C(F)(F)F)ccc12 | – | inactive: -24.7% |
| CN1CCN(c2ccc(OC(F)(F)F)c(Nc3ncc4c(n3)-c3c(c(C(N)=O)nn3CCO)CC4)c2)CC1 | inconclusive: 15.3 µM [cytotoxic, single point] | – |
| c1cc(N[C@@H]2CCNC2)nc(-c2cnc3ccc(-c4cn[nH]c4)cn23)c1 | inconclusive: 6.85 µM [cytotoxic, partial curve] | – |
| COc1cccc2cc(-c3nc(C4CCC(C(=O)O)CC4)n4ncnc(N)c34)[nH]c12 (stereo not given) | inconclusive: 12.2 µM [cytotoxic, partial curve] | – |
| O=C(CCCCCCC(=O)Nc1ccccc1)NO | active: 12.2 µM | – |
| CC(C)c1nn(-c2c(Cl)cccc2Cl)c2nc(Cc3ccc(OCCO)cc3)[nH]c(=O)c12 | – | inactive: -3.9% |
| CCC(=O)N1CCN(c2ccc(-n3c(=O)ccc4cnc5ccc(-c6cnc7ccccc7c6)cc5c43)cc2C(F)(F)F)CC1 | inconclusive: 0.993 µM [cytotoxic, partial curve] | – |
| COCCOc1nc(-c2ccc(Cl)c(Cl)c2)n(-c2ccc(NC(=O)CCl)cc2)n1 | inconclusive: 38.5 µM [cytotoxic, single point] | – |
| CCCC(=O)O[C@]1(C(=O)CCl)[C@@H](C)C[C@H]2[C@@H]3CCC4=CC(=O)C=C[C@]4(C)[C@@]3(F)C(=O)C[C@@]21C | – | inactive: -10.5% |
| CC[C@]1(O)C[C@@H]2CN(CCc3c([nH]c4ccccc34)[C@@](C(=O)OC)(c3cc4c(cc3OC)N(C)[C@H]3[C@@](O)(C(=O)OC)[C@H](OC(C)=O)[C@]5(CC)C=CCN6CC[C@]43[C@@H]65)C2)C1 | inconclusive: 30.6 µM [cytotoxic, partial curve, poor fit] | – |
| CCn1cc(-c2ccnc3[nH]c(-c4cccc(CN(C)C)c4)cc23)c(-c2ccc(NC(=O)N(C)C)cc2)n1 | inconclusive: 0.53 µM [cytotoxic, full curve] | – |
| Cn1cnc2c(F)c(Nc3ccc(Br)cc3F)c(C(=O)NOCCO)cc21 | – | inactive: 9.19% |
| COc1cc(Nc2ncc3c(n2)-c2ccc(Cl)cc2C(c2c(F)cccc2OC)=NC3)ccc1C(=O)O | inconclusive: 0.306 µM [cytotoxic, full curve] | – |
| CN(C)/N=N/c1nc[nH]c1C(N)=O | – | inactive: 11% |
| CCN1C[C@H](C)n2c(c(O)c3c(=O)n(Cc4ccc(F)c(Cl)c4)nc(C(=O)NC)c32)C1=O | – | inactive: 18.8% |
| CCC1=CC2CN(C1)Cc1c([nH]c3ccccc13)[C@@](C(=O)OC)(c1cc3c(cc1OC)N(C)[C@H]1[C@@](O)(C(=O)OC)[C@H](OC(C)=O)[C@]4(CC)C=CCN5CC[C@]31[C@@H]54)C2 (stereo not given in full) | – | inactive: 1.08% [at 19.5 µM] |
| FC(F)(F)c1ccc(/C=C/c2nc(COc3ccc(CCCCn4ccnn4)cc3)co2)cc1 | – | inactive: -31% |
| CN(C[C@@H]1COCCO1)S(=O)(=O)Nc1ccc2ccc3ncc(-c4cnn(C)c4)cc3c(=O)c2c1 | inconclusive: 15.3 µM [cytotoxic, partial curve] | – |
| Nc1ncnc2c1ncn2[C@@H]1O[C@H](CO)C[C@H]1O | – | inactive: 15.8% |
| Cc1cc(Nc2cc(N3CCN(C)CC3)nc(/C=C/c3ccccc3)n2)n[nH]1 | active: 7.69 µM | – |

Sorted by formula weight (high to low): part of the list above.

| SMILES | Potency | activity change, negative = viability loss |
| --- | --- | --- |
| Cn1cnc2c(F)c(Nc3ccc(Br)cc3F)c(C(=O)NOCCO)cc21 | – | inactive: 9.19% |
| COc1cccc2cc(-c3nc(C4CCC(C(=O)O)CC4)n4ncnc(N)c34)[nH]c12 (stereo not given) | inconclusive: 12.2 µM [cytotoxic, partial curve] | – |
| c1cc(N[C@@H]2CCNC2)nc(-c2cnc3ccc(-c4cn[nH]c4)cn23)c1 | inconclusive: 6.85 µM [cytotoxic, partial curve] | – |
